# From patent publication US8318781B2, “G-protein-conjugated receptor agonist” (Japan Science and Technology Agency, priority 2007, dated 2012)
# By UniProt entry, the sequences of proteins in these tests, tags left out.
# UniProt O14842, whole entry: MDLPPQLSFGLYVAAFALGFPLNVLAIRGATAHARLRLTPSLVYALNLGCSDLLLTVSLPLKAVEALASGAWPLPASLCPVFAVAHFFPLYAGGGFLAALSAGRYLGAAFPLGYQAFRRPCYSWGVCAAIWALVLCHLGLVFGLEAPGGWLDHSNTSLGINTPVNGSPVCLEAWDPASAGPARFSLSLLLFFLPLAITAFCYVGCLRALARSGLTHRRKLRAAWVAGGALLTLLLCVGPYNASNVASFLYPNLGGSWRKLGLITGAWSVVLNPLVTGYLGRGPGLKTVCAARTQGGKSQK
# Entries after “also recorded” stand apart in the source; their conditions may differ. At least one compound was matched to its structure with a doubt left. Some compounds share one wording; it may come from a single statement.
# What was measured:
# Assay type in all cases: cell-based
# human GPR120 (hGPR120) [1] = target: T1, human GPR120 (hGPR120) (Homo sapiens, UniProt Q5NUL3); experiment: ERK assay, screening for GPR120 ligands in cell line TXGPR120; conditions: for ERK/GPR120 10 μM: ligand 10 μM; for ERK/GPR120 10 μM / ERK/GPR120 100 μM: class relative to LA; for ERK/GPR120 100 μM: ligand 100 μM;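 on ERK/GPR120 10 μM: signals normalized between DMSO and PMA controls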
# T1 construct: expressed in transfected cells; doxycycline-inducible expression vector
# T1 sequence (Q5NUL3 1-361): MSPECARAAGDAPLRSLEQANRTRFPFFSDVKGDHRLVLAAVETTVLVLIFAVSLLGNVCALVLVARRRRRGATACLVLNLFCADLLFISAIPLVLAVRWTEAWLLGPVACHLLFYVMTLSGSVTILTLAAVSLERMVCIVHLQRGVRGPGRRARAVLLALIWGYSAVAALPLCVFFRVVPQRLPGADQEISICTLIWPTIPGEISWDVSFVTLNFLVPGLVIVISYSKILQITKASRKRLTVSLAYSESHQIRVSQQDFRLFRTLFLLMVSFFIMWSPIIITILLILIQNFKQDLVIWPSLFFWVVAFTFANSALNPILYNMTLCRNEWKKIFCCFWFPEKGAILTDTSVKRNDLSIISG
# Method: (§1) This Test 1 was carried out by using the following materials and methods.
# (§2) (1) In this test, the cell lines TXGPR40 and TXGPR120 were plated in 35-mm dishes in 5×10^5 cells/per dish.
# (§3) Each ligand was dissolved in DMSO, diluted tenfold with the medium to make the total amount of 100 μl. DMSO was used as the negative control, and PMA (phorbol-12-myristate-13-acetate) was used as the positive control.
# (§4) (3) The medium was removed from the dish of the cell to reduce the total amount of liquid to 0.9 ml.
# (§5) (4) The ligand solution was added dropwise to the cell solution, and dispersed by gently shaking the dish, and allowed to react at room temperature.
# (§6) (5) After 5 minutes of reaction, the medium was discarded, and the remaining medium on the dish was removed on ice using an aspirator.
# (§7) (6) 150 μl of Lysis buffer (50 mM HEPES (pH 7.0), 150 mM NaCl, 10% glycerol, 1% NonidetP-40, 2 mM MgCl2, 1 mM EDTA, 100 mM NaF, 10 mM sodium phosphate, 1 mM Na3VO4, 20 mM β-glycerophosphate, and Proteinase inhibitor) were added, then the cells were collected using a cell scraper.
# (§8) (1) The crude enzyme solution mixed with SDS Sample Buffer was subjected to ultrasonication with a sonifier, then incubated at 90° C. for five minutes.
# (§9) (2) The mixture was vortexed and centrifuged at 15,000 rpm for five minutes at 4° C.
# (§10) (3) The supernatant of the centrifuged sample was applied to two 7.5% acrylamide gel slabs placed in an electrophoresis tank filled with 1×SDS-PAGE Running Buffer (25 mM Tris, 0.2 M Glycin, and 1% SDS). Electrophoresis was carried out under a constant current of 40 mA for about 80 to 90 minutes.
# (§11) (1) A PVDF membrane cut in the same size as the gel slab was immersed in methanol for about 15 seconds and then shaken in Transfer Buffer C solution (25 mM Tris, 0.02% SDS, 2% methanol and 40 mM 6-aminohexanoic acid) at room temperature to swell for 15 minutes. Filter paper for blotting was cut into a 10-cm square.
# (§12) (2) On the blotting apparatus were placed sequentially two pieces of filter paper immersed in A solution (0.3 M Tris, 0.02% SDS and 2% methanol), two pieces of filter paper immersed in B solution (25 mM Tris, 0.02% SDS and 2% methanol), and the membrane thereon. The gel slab after electrophoresis, and finally two pieces of filter paper immersed in C solution was placed thereon, and the apparatus was closed.
# (§13) (3) The protein was transferred to the membrane at 15 V for 30 minutes.
# (§14) (1) The following procedure was all carried out at room temperature. After the protein transfer, the membrane was placed into a vial containing 1×TTBS (0.2 M Tris, 1.5 M NaCl, 0.2% Tween 20) and washed for 15 minutes.
# (§15) (2) TTBS was discarded, and about 10 ml of Block Ace was added and blocked on a shaker for one hour.
# (§16) (1) The primary antibodies (p44/42 MAP Kinase Antibody and Phospho-p44/42 MAP Kinase Antibody) were each diluted 1000-fold with TTBS.
# (§17) (2) After blocking, the Block Ace solution was removed, the solution of the primary antibody was added and allowed to react on the shaker for two hours.
# (§18) (1) The secondary antibody (Anti-rabbit Ig, Horseradish Peroxidase linked F(ab′)2 fragments) was diluted 5000-fold with TTBS.
# (§19) (2) The primary antibody solution was removed and the membrane was washed three times on the shaker in TTBS for five to ten minutes each.
# (§20) (3) TTBS was removed and the solution of secondary antibody was added and left for 1 hour on the shaker.
# (§21) (1) 2 ml each of Detection Reagent 1 and Detection Reagent 2 from ECL kit were mixed together on ice.
# (§22) (2) The solution of secondary antibody was removed from the membrane reacted with the secondary antibody and then washed three times on the shaker in TTBS for five minutes each.
# (§23) (3) The liquid was thoroughly removed from the membrane, which was then placed in a plastic bag, and 2 ml of the Detection Reagent mixture was added per each membrane.
# (§24) (4) The membrane was kept in contact with a film in the cassette for one to five minutes, and the film was developed using an automatic developing machine.
# human GPR120 (hGPR120) [2] = target: T1, human GPR120 (hGPR120); experiment: Determination of intracellular Ca2+ concentration (FLIPR), cell line GPR120/Flp-in; conditions: relative fluorescence intensity vs LA at 10 μM, GPR120/Flp-in cells
# Method: (§25) (1) In this test, The cell lines TXGPR40, TXGPR120 and GPR120/Flp-in were plated onto a collagen-coated black 96-well plate in 2×10^5 cells/well. The 96-well plates containing the cells were centrifuged and treated with Doxycycline (final concentration 10 μg/mL), incubated in a CO2 incubator for 21 hours, then used for assay.
# (§26) (2) The ligand used in this test includes NCP04, NCP14, NCG20, NCG21, NCG22, NCG23, NCP02, NCP03, NCP05, NCP06, NCG14, NCG17, NCG19, NCG28, NCG29, NCG30, NCG31, NCG34, NCG35, NCG37, NCG38, NCG44, NCG45, NCG46, and NCG54. Each ligand was dissolved in DMSO and adjusted to the concentration of 10 mM, then diluted with Hanks' Balanced Salt Solution (pH 7.4) containing 20 mM HEPES (referred to as FLIPR buffer hereinafter) to the final concentration of 1 to 100 μM. 1% DMSO was used as the negative control, and LA was used as the positive control.
# (§27) The ligands and controls were placed in different 96-well plates from the plates for the cells.
# (§28) (3) The 96-well plate containing the cells was removed from the CO2 incubator. A fluorescent dye prepared in a twofold higher concentration (Ca Assay Kit Component A diluted with FLIPR Buffer) was added in 50 μL/well, then allowed to stand in the dark at room temperature for one hour.
# (§29) (4) After one hour, the 96-well plate containing the cells and the 96-well plate in which ligands and controls were prepared were set on FLIPR (Fluorometric Imaging Plate Reader) for determination.
# (§30) (5) Fluorometry using FLIPR was carried out at a laser output of 1.0 W for five minutes. […] after the start of the determination, the ligand (25 μL) was added dropwise to the cell plate at a rate of 50 μL/sec. The intensity of fluorescence was automatically digitized by the application program installed in the FLIPR from the image taken by the CCD camera (with exposure time of 0.40 sec). The interval of data sampling was one second for the initial one minute after the start of operation, and six seconds for the subsequent four minutes.
# (§31) (6) The maximum fluorescence intensity was obtained from the data showing the change in the fluorescence intensity over time observed in each well. The maximum fluorescence intensity was plotted against ligand concentration, and pEC50 was calculated. The ratio of the fluorescence intensity for each ligand to LA at 10 μM was calculated as the relative intensity of each ligand.
# human GPR40 (hGPR40) [3] = target: T2, human GPR40 (hGPR40) (Homo sapiens, UniProt O14842); experiment: Determination of intracellular Ca2+ concentration (FLIPR), cell line TXGPR40; conditions: for agonistic activity for GPR40 (in words): cells in which GPR40 has been transgenically expressed; for [Ca^2+]/GPR40 10 μM (ratio vs. LA): relative fluorescence intensity vs LA at 10 μM, TXGPR40 cells
# T2 construct: expressed in transfected cells; doxycycline-inducible expression vector
# Method: as §25, §26, §27, §28, §29, §30, §31
# human GPR120 (hGPR120) [4] = target: T1, human GPR120 (hGPR120); experiment: Determination of intracellular Ca2+ concentration (FLIPR), cell line TXGPR120; conditions: for agonistic activity for hGPR120 (in words): cells in which GPR120 has been transgenically expressed; for [Ca^2+]/GPR120 10 μM (ratio vs. LA): relative fluorescence intensity vs LA at 10 μM, TXGPR120 cells
# Method: as §25, §26, §27, §28, §29, §30, §31
# human GPR40 (hGPR40) [5] = target: T2, human GPR40 (hGPR40); experiment: ERK assay, screening for GPR40 ligands in cell line TXGPR40; conditions: TXGPR40 cells; for ERK/GPR40 10 μM: ligand 10 μM; for ERK/GPR40 10 μM / ERK/GPR40 100 μM: class relative to LA; for ERK/GPR40 100 μM: ligand 100 μM
# Method: as §1, §2, §3, §4, §5, §6, §7, §8, §9, §10, §11, §12, §13, §14, §15, §16, §17, §18, §19, §20, §21, §22, §23, §24
Compound,ERK/GPR120 10 μM (human GPR120 (hGPR120) [1]; TXGPR120 cells),ERK/GPR120 100 μM (human GPR120 (hGPR120) [1]; TXGPR120 cells),[Ca^2+]/GPR120/Flp-In 10 μM (ratio vs. LA) (human GPR120 (hGPR120) [2]),agonistic activity for GPR40 (in words) (human GPR40 (hGPR40) [3]),[Ca^2+]/GPR40 10 μM (ratio vs. LA) (human GPR40 (hGPR40) [3]),agonistic activity for hGPR120 (in words) (human GPR120 (hGPR120) [4]),[Ca^2+]/GPR120 10 μM (ratio vs. LA) (human GPR120 (hGPR120) [4]),ERK/GPR40 10 μM (human GPR40 (hGPR40) [5]),ERK/GPR40 100 μM (human GPR40 (hGPR40) [5]),selectivity for GPR120 in ERK assay (in words) (human GPR120 (hGPR120) [1]; GPR120 versus GPR40),"ERK activation for GPR120 (in words) (human GPR120 (hGPR120) [1]; TXGPR120 cells, FIGS. 5-8)","selectivity between GPR40 and GPR120 (in words), from Tables 3 and 4 (human GPR120 (hGPR120) [4]; GPR40 versus GPR120, Ca2+ and ERK results)",ERK activation for GPR40 (in words) (human GPR40 (hGPR40) [5]; FIGS. 1-4)
"CCCCN(CCOc1ccc(CCCC(=O)O)cc1)c1ccccn1 [NCG20, 4-{4-[2-(2-butylpyridinylamino)ethoxy]phenyl}butanoic acid]",+ (+ denotes 0 to 100% of LA),+++ (+++ denotes a higher value than LA),0.41,showed a specific reactivity,0.10,exhibit a similar effect,0.04,+ (+ denotes 0 to 100% of LA),+++ (+++ denotes a higher value than LA),,,,
O=C(O)CCCc1ccc(OCCN(c2ccccc2)c2ccccn2)cc1 [NCG21],+++ (+++ denotes a higher value than LA),+++ (+++ denotes a higher value than LA),1.04,relatively weak agonistic activity; also recorded: showed a specific reactivity,0.26,outstanding agonistic activity; also recorded: exhibit a similar effect,1.90,+ (+ denotes 0 to 100% of LA),++ (++ denotes 50 to 100% of LA),selective for GRP120,activates ERK more strongly; also recorded: strongly activate ERK,acting relatively mildly for GPR40 but acting strongly for GPR120,activates ERK
"CCCCN(CCOc1ccc(CCCCC(=O)O)cc1)c1ccccn1 [NCG22, 5-{4-[2-(2-butylpyridinylamino)ethoxy]phenyl}pentanoic acid]",++ (++ denotes 50 to 100% of LA),++ (++ denotes 50 to 100% of LA),0.14,showed a specific reactivity,0.30,exhibit a similar effect,0.02,+ (+ denotes 0 to 100% of LA),++ (++ denotes 50 to 100% of LA),,,,
"O=C(O)CCCCc1ccc(OCCN(c2ccccc2)c2ccccn2)cc1 [NCG23, 5-{4-[2-(2-phenylpyridinylamino)ethoxy]phenyl}pentanoic acid]",++ (++ denotes 50 to 100% of LA),++ (++ denotes 50 to 100% of LA),0.58,showed a specific reactivity,0.99,exhibit a similar effect,0.02,++ (++ denotes 50 to 100% of LA),+++ (+++ denotes a higher value than LA),,,,
